Experimental data: PubChem BioAssay AID504793 (Drosophila RNAi Screening Center, 2011)
Purpose: 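Genes required for cells to halt at G2/M after double-strand DNA breaks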 (primary screen). Cell system: Drosophila S2R+ cells. Knock-down reagent: long dsRNA against Drosophila genes, about 0.25 µg dsRNA per well. Timing: 4 days of dsRNA, then 4 hours of drug before read-out. Conditions: doxorubicin 0.5 µM for 4 hours to cause double-strand breaks, in cells also given a low, harmless dose of dsRNA against nbs to sensitise the assay. Detection: 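Mitotic index as the number of phospho-histone H3-positive cells in each well following doxorubicin, given as raw counts without normalisation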. Direction: mitotic cells: higher = more cells in mitosis, weaker G2 arrest. Rule for the call: 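a call needs confirmation in secondary tests, with other dsRNAs and a check of mitotic timing without damage, not just a high primary count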. Calls: active = confirmed in follow-up tests; inactive = not confirmed.
In all, the deposit lists about 23,000 reagents; below is an unselected part of those that have a named target and a result. In the full data, 62 (0.27%) got an active call. 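Calls come from follow-up tests whose scores are not deposited, so confirmed genes may have low counts here; counts are not normalised per plate.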 Raw values vary from plate to plate and are shown uncorrected. The numbers tell different reagents against one gene apart. Reagent sequences are not shown.

mitotic cells, replicate 1, by gene knocked down and reagent
His-Psi:CR31754: #1 17 inactive
CG10914: #1 9 inactive
wbl: #1 4 inactive; #2 8 inactive
Usp30: #1 9 inactive; #2 7 inactive
Pef: #1 12 inactive
CG14244: #1 8 inactive
RpS5a: #1 6 inactive
CG10764: #1 3 inactive
CG15456: #1 4 inactive
ATP8A: #1 6 inactive; #2 6 inactive; #3 6 inactive
CG5180: #1 5 inactive
Arp6: #1 2 inactive
CG8850: #1 8 inactive; #2 3 inactive
Sobp: #1 7 inactive; #2 5 inactive
loco: #1 9 inactive; #2 8 inactive; #3 4 inactive
whd: #1 4 inactive
CG8300: #1 9 inactive; #2 4 inactive
CG32371: #1 9 inactive; #2 8 inactive
CG17732: #1 6 inactive
CG7685: #1 12 inactive; #2 8 inactive
CG13044: #1 2 inactive; #2 3 inactive
MtnA: #1 6 inactive
CG6277: #1 18 inactive; #2 4 inactive
OdsH: #1 3 inactive
BORCS6: #1 4 inactive; #2 7 inactive
Traf4: #1 1 inactive; #2 9 inactive
TwdlR: #1 13 inactive
CG31997: #1 5 inactive
qless: #1 16 inactive; #2 6 inactive

Targets listed so far whose gene name begins with W or w:
mitotic cells, replicate 1, by gene knocked down and reagent
wbl: #1 4 inactive; #2 8 inactive
whd: #1 4 inactive
